Residue numbers refer to the chain shown, from its start. Names may count otherwise. These are yes or no findings as the source states them, for the method shown. For some assays here: Binding seen in cells or lysates may run through a third protein. Some results given as binding are weak or reduced against the parent protein; the word gives no strength. Sequences can lack the tags named with a protein.
T1: full-length human GTF2IRD1 1α1 isoform fused to the GAL4 DNA-binding domain (pGBKT7-GTF2IRD1) (human) (UniProt Q9UHL9)
T1 sequence: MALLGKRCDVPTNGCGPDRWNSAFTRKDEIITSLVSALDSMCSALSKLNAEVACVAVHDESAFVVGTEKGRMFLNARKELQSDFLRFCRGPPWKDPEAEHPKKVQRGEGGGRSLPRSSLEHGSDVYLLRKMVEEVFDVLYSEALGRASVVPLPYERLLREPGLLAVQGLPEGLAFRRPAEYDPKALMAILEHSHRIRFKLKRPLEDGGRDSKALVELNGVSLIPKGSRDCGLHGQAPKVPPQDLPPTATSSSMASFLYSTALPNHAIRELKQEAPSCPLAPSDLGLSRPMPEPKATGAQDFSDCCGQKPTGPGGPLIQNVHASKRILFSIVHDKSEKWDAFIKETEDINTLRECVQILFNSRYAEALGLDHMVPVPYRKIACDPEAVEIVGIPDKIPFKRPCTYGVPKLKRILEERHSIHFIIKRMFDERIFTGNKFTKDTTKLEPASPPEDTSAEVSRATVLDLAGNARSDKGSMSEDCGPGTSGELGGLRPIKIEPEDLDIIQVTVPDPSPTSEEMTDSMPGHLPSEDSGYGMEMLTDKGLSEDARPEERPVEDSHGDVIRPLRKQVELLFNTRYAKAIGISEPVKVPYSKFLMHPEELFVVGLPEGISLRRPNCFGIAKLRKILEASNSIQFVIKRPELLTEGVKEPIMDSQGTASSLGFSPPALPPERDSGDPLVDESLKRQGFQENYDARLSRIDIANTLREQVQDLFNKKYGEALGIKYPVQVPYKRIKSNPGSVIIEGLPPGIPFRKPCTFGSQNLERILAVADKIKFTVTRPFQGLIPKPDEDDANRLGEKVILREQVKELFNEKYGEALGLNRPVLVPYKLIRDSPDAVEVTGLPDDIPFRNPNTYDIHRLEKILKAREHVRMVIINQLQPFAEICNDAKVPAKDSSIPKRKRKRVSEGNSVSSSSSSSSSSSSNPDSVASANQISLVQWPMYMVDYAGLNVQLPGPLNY

Amino acid sequences for entries named in this document (tags omitted).
UniProt Q8C5D8: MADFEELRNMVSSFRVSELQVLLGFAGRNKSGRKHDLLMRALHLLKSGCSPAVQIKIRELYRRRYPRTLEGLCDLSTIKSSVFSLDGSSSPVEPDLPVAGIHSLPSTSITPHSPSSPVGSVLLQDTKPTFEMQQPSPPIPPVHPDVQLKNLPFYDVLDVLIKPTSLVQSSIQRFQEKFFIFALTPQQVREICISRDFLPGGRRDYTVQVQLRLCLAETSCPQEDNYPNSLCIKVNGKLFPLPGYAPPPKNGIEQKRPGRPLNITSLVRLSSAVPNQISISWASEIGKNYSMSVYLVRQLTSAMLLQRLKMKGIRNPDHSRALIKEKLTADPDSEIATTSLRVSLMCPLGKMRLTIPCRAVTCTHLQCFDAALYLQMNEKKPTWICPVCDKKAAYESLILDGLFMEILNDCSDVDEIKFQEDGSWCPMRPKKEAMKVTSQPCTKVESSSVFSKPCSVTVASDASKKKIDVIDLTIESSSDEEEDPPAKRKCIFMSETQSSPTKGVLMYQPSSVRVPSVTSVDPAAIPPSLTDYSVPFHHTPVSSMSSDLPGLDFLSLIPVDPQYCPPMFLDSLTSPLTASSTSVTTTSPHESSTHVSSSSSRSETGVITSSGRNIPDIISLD
UniProt P63280: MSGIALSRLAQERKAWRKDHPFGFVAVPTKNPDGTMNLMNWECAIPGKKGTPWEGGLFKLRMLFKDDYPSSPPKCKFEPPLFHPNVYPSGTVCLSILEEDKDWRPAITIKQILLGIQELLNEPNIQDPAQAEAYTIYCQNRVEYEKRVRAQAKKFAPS

T2: GFP-ZMYM5 (pEGFP-ZMYM5) (mouse) (UniProt Q3U2E2)
T2 sequence: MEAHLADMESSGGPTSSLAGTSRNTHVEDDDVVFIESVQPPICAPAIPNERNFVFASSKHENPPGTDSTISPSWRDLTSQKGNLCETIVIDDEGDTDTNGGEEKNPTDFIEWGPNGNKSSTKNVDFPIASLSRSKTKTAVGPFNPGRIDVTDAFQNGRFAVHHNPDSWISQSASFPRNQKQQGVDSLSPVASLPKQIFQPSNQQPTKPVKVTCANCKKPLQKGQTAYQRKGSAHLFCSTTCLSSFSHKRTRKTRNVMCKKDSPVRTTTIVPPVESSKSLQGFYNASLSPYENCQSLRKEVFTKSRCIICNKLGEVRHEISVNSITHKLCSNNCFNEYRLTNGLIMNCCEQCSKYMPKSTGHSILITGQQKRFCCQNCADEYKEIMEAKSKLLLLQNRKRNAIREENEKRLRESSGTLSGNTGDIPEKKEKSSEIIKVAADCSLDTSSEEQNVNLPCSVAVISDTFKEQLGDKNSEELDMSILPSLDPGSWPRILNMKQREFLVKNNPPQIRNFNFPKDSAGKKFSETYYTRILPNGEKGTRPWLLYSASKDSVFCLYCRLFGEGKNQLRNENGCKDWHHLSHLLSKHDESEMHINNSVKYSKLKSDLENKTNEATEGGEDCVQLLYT

B1: GTF2IRD1, non-SUMOylated, untagged (pcDNA-GTF2IRD1) (protein, UniProt Q9UHL9 1-959)
chain: T1 sequence
B2: GTF2IRD1-2KR (K271R/K495R double mutant), untagged (pcDNA-2KR) (protein, UniProt Q9UHL9 1-959)
chain: T1 sequence with K271R, K495R
B3: amino-terminal truncated ZMYM5 lacking the first 62 amino acids, prey clone isolated in the yeast 2-hybrid screen (pGADT7-ZMYM5) (domain or fragment, UniProt Q3U2E2 63-627)
chain: PPGTDSTISPSWRDLTSQKGNLCETIVIDDEGDTDTNGGEEKNPTDFIEWGPNGNKSSTKNVDFPIASLSRSKTKTAVGPFNPGRIDVTDAFQNGRFAVHHNPDSWISQSASFPRNQKQQGVDSLSPVASLPKQIFQPSNQQPTKPVKVTCANCKKPLQKGQTAYQRKGSAHLFCSTTCLSSFSHKRTRKTRNVMCKKDSPVRTTTIVPPVESSKSLQGFYNASLSPYENCQSLRKEVFTKSRCIICNKLGEVRHEISVNSITHKLCSNNCFNEYRLTNGLIMNCCEQCSKYMPKSTGHSILITGQQKRFCCQNCADEYKEIMEAKSKLLLLQNRKRNAIREENEKRLRESSGTLSGNTGDIPEKKEKSSEIIKVAADCSLDTSSEEQNVNLPCSVAVISDTFKEQLGDKNSEELDMSILPSLDPGSWPRILNMKQREFLVKNNPPQIRNFNFPKDSAGKKFSETYYTRILPNGEKGTRPWLLYSASKDSVFCLYCRLFGEGKNQLRNENGCKDWHHLSHLLSKHDESEMHINNSVKYSKLKSDLENKTNEATEGGEDCVQLLYT
B4: Myc-GTF2IRD1 (pMyc-GTF2IRD1) (protein, UniProt Q9UHL9 1-959)
chain: T1 sequence

How the values were obtained:
[1] = biological target: T1, full-length human GTF2IRD1 1α1 isoform fused to the GAL4 DNA-binding domain (pGBKT7-GTF2IRD1) (human); assay: two-hybrid; Matchmaker system; co-transformation of pGBKT7 bait and pGADT7 prey into S. cerevisiae AH109; double transformants from DDO plates re-spotted on QDO plates with x-α-galactosidase (HIS3, ADE2, MEL1 markers)
[2] = biological target: T2, GFP-ZMYM5 (pEGFP-ZMYM5) (mouse); assay: co-IP; HEK293 cells co-transfected; lysis in PBS with 0.1% Triton-X; immunoprecipitation with anti-GFP antibody on beads at 4°C overnight; blot with anti-Myc (Figure 4E) or anti-GTF2IRD1 (Figure 5B, cells also co-transfected with pMT3-HA-SUMO1)
[3] = biological target: GFP-PIASxβ (pEGFP-PIASxβ) (mouse) (UniProt Q8C5D8); assay: co-IP; HEK293 cells co-transfected with GFP-PIASxβ or EGFP and GTF2IRD1 or GTF2IRD1-2KR; immunoprecipitation with anti-GFP antibody; blot with anti-GTF2IRD1; densitometry of SUMOylated and non-SUMOylated bands
[4] = biological target: T1, full-length human GTF2IRD1 1α1 isoform fused to the GAL4 DNA-binding domain (pGBKT7-GTF2IRD1) (human); assay: two-hybrid; library screen: universal normalized mouse cDNA library (Mate & Plate, Clontech) with pGBKT7-GTF2IRD1 as bait; QDO selection, α-galactosidase-positive colonies
[5] = biological target: T1, full-length human GTF2IRD1 1α1 isoform fused to the GAL4 DNA-binding domain (pGBKT7-GTF2IRD1) (human); assay: two-hybrid; Matchmaker system; co-transformation of pGBKT7 bait and pGADT7 prey into S. cerevisiae AH109; double transformants from DDO plates re-spotted on QDO plates with x-α-galactosidase (HIS3, ADE2, MEL1 markers); remark: listed apart in the source

Molecule	binding [2]	binding [3]	also measured
UBC9 fused to the GAL4 activation domain (pGADT7-UBC9) (from UniProt P63280 1-158) (enzyme)			binding [1]: binds
B1	binds	binds	
B2	binds	binds	
B3			binding [4]: binds; binding [5]: binds
B4	binds		

Source: publication PMC3493543
